Data as given in EP2025683A1 (INSERM (Institut National de la Santé et de la Recherche …, dated 2009).
No constants are given. Whether binding was seen depends on the method and setting. Some entries that bind do so weakly or less than the wild type.

Molecular target: T1, human prolactin receptor (human, UniProt P16471 25-622)
T1 sequence (looked up): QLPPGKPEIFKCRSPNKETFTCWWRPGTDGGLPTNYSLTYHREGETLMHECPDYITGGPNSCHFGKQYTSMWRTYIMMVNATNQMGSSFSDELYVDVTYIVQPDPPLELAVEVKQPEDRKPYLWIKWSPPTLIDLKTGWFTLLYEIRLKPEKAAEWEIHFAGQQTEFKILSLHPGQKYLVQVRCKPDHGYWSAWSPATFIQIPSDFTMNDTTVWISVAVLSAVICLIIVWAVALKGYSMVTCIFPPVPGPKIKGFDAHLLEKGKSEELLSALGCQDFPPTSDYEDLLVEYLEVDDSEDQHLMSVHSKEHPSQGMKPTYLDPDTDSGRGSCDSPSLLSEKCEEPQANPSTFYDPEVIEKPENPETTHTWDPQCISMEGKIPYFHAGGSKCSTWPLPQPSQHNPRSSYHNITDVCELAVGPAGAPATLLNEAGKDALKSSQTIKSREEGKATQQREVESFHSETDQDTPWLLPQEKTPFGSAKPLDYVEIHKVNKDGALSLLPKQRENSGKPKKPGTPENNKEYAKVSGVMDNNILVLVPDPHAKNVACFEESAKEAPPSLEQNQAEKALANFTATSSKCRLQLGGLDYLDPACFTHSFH
Assay: displacement of [125I]-hPRL, homogenates of HEK 293 cells stably expressing hPRLR (HL-5 clone)

- binding: binds
B1: G129P-hPRL (ligand, human, UniProt P01236 29-227, looked up)
chain: LPICPGGAARCQVTLRDLFDRAVVLSHYIHNLSSEMFSEFDKRYTHGRGFITKAINSCHTSSLATPEDKEQAQQMNQKDFLSLIVSILRSWNEPLYHLVTEVRGMQEAPEAILSKAVEIEEQTKRLLEPMELIVSQVHPETKENEIYPVWSGLPSLQMADEESRLSAYYNLLHCLRRDSHKIDNYLKLLKCRIIHNNNC
